We go through one sequence from patent publication US20140255304.

Chains of the proteins cited; added tags and fusions are not shown.
UniProt Q13148, whole entry: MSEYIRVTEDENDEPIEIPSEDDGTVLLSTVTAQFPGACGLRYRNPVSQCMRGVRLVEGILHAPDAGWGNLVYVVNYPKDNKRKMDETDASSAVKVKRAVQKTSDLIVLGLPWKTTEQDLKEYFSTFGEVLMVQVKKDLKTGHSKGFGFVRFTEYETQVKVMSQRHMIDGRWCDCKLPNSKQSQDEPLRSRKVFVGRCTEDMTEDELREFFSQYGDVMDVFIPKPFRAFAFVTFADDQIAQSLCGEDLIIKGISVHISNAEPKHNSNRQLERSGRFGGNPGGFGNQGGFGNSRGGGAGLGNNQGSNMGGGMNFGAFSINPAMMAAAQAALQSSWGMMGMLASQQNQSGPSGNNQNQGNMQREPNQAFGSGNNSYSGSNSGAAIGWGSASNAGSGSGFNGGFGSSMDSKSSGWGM

Weaker means in comparison with the reference protein, sequence or condition of that experiment.

The series has as its target TDP-43 full length (residues 1-414) (Homo sapiens) (UniProt Q13148). Put plainly: FP. Particulars: at least 30-fold lower affinity than (UG)6; 40 mM HEPES, 0.5 M KCl, 0.4 M arginine, pH 7.4, 25 C; purified recombinant protein; label: 5' TYE fluorophore.

Regarding UUUUUUUUUUUU [(UU)6 control RNA], the binding result is “binds more weakly”.
